Data source: PubChem BioAssay AID652272 (Drosophila RNAi Screening Center, 2013)

Screen: 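Genome-wide knock-down search for components of Hedgehog signalling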 (primary screen)
System: Drosophila clone 8 (Cl8) cells
Reagents: long dsRNA against Drosophila genes
Measurement: 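Plate reader light from a firefly reporter under a ptc promoter fragment that responds to Hedgehog, with Renilla light as transfection reference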
Reading the numbers: firefly Hh reporter signal: higher = more ptc reporter light; Renilla reference signal: higher = more Renilla control light
Call rule: 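Called a hit if the two-replicate mean z-score lies below -2 or above +3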
Calls: active = hit: reporter lowered or raised; inactive = not a hit
In all, the deposit lists about 21,000 reagents; below is an unselected part of those with a known target gene and a result. Over the whole deposit, 503 (2.4%) are marked active. 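Raw plate light values, not normalised; calls rest on replicate z-scores that were not deposited; hits include reporter decreases as well as increases.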 Entries without a mark were called inactive. The numbers tell different reagents against one gene apart. A plus sign joins genes that one reagent is predicted to hit. Not stated in the record: the amount of reagent, the time to read-out.

Target gene | reagent no. | firefly Hh reporter signal, replicate 1 | firefly Hh reporter signal, replicate 2 | firefly Hh reporter signal, replicate 3 | Renilla reference signal, replicate 1 | Renilla reference signal, replicate 2
CG10081 | 1 | 90935 | 55802 | – | 2483 | 4257
krimp | 1 | 1.88e5 | 1.18e5 | – | 7143 | 5076
CG17768 + LSm-4 | 1 | 93799 | 41660 | – | 2627 | 4001
NimC1 | 1 | 1.03e5 | 41962 | – | 2688 | 3968
Snap29 | 1 | 58043 | 49090 | – | 1789 | 4832
CG17612 | 1 | 1.10e5 | 1.23e5 | – | 4841 | 4540
alien + CG17906 | 1 | 1.02e5 | 57965 | – | 2900 | 5595
CG43058 | 1 | 1.03e5 | 2.26e5 | – | 2731 | 8779
CG32260 | 1 | 1.03e5 | 2.36e5 | – | 3170 | 8195
CG34242 | 1 | 1.92e5 | 2.75e5 | – | 5718 | 12407
E(var)3-9 | 1 | 1.11e5 | 1.59e5 | – | 4713 | 4902
CG7011 + Prp31 | 1 | 1.72e5 | 73473 | – | 7284 | 2845
e(r) | 1 | 93942 | 89062 | – | 2675 | 1832
CG8997 | 1 | 90508 | 33042 | – | 2608 | 3387
CG30471 | 1 | 89146 | 62523 | – | 4260 | 2541
CG11404 | 1 | 1.09e5 | 1.16e5 | – | 4185 | 1959
CG15571 | 1 | 64375 | 1.34e5 | – | 1904 | 4937
aust | 1 | 68400 | 40580 | – | 1830 | 3815
Grip84 | 1 | 81352 | 60615 | – | 1573 | 1683
TwdlQ | 1 | 64237 | 53689 | – | 1760 | 1424
CG14712 | 1 | 76329 | 43616 | – | 4016 | 2503
CG6985 | 1 | 1.34e5 | 1.13e5 | – | 5909 | 4993
Sox21a | 1 | 90822 | – | – | 3792 | 2848
CG7772 | 1 | 1.61e5 | 1.46e5 | – | 3984 | 3740
GstE11 | 1 | 1.24e5 | 81872 | – | 5194 | 3821
PpY-55A | 1 | 44434 | 49907 | – | 1209 | 4168
CG8065 | 1 | 49381 | 59184 | 56877 | 5954 | 3184

Reformatted: results already given.
| Target gene | reagent no. | firefly Hh reporter signal, replicate 1 | firefly Hh reporter signal, replicate 2 | firefly Hh reporter signal, replicate 3 | Renilla reference signal, replicate 1 | Renilla reference signal, replicate 2 |
| --- | --- | --- | --- | --- | --- | --- |
| e(r) | 1 | 93942 | 89062 | – | 2675 | 1832 |
| CG8997 | 1 | 90508 | 33042 | – | 2608 | 3387 |
| CG30471 | 1 | 89146 | 62523 | – | 4260 | 2541 |

Further records follow.
Target gene | reagent no. | firefly Hh reporter signal, replicate 1 | firefly Hh reporter signal, replicate 2 | firefly Hh reporter signal, replicate 3 | Renilla reference signal, replicate 1 | Renilla reference signal, replicate 2
CG7907 | 1 | 3.82e5 | 1.69e5 | – | 20512 | 3581
Acsl | 1 | 73991 | 35649 | – | 3773 | 1748
CG14445 | 1 | 81753 | 2.12e5 | – | 2424 | 6738
Ir7e | 1 | 5.13e5 | 73138 | – | 3000 | 3000
Rsph4a | 1 | 1.78e5 | 1.02e5 | – | 7281 | 4387
betaNACtes3 | 1 | 80626 | 1.86e5 | – | 2225 | 8264
CG31198 | 1 | 1.16e5 | 66123 | – | 5463 | 3026
CG8701 | 1 | 84792 | 50556 | – | 3448 | 2156
TpnC25D | 1 | 85874 | 36102 | – | 2346 | 4283
CG14642 | 1 | 1.57e5 | 1.27e5 | – | 6227 | 5164
PGRP-SA | 1 | 78688 | 1.85e5 | – | 3009 | 7610
rk | 1 | 1.32e5 | 55673 | – | 3283 | 5157
Cyp4g15 | 1 | 92336 | 1.90e5 | – | 3670 | 7960
CG5002 | 1 | 1.30e5 | 72762 | – | 5109 | 3078
CG14500 | 1 | 76059 | 59364 | – | 1653 | 4294
ValRS | 1 | 1.24e5 | 56932 | – | 4593 | 800
CG11889 + CG11891 | 1 | 5.35e5 | 69702 | – | 26084 | 2428
CG11889 + CG11891 | 2 | 4.22e5 | 78176 | – | 22858 | 2723
dind | 1 | 80509 | 66328 | – | 3402 | 2746
PGAP3 | 1 | 88083 | 76464 | – | 3650 | 3049
CG31259 | 1 | 64151 | 81207 | – | 2325 | 2427
Chc | 1 | 89947 | 78861 | – | 2393 | 2050
CG4372 | 1 | 78997 | 64938 | – | 2653 | 5724
CG1622 | 1 | 98267 | 94343 | – | 2893 | 2256
CG16985 | 1 | 91912 | 42072 | – | 2921 | 3286
CG5013 | 1 | 70928 | 94555 | – | 1564 | 6428
CG8778 | 1 | 62544 | 64444 | – | 1705 | 4499
CG1986 | 1 | 61627 | 1.20e5 | – | 2071 | 6240
CG15771 | 1 | 80135 | 1.38e5 | – | 3075 | 5050
Su(z)12 | 1 | 93784 | 1.07e5 | – | 3552 | 3175
Usp47 | 1 | 91973 | 72323 | – | 3283 | 3059
mbm | 1 | 1.07e5 | 90152 | – | 4402 | 3571
CG42299 + CG42300 | 1 | 59340 | 1.83e5 | – | 1637 | 7938
CG42299 + CG42300 | 2 | 72184 | 1.65e5 | – | 2260 | 6597
snRNP-U1-70K | 1 | 1.62e5 | 6.46e5 | 92669 | 4119 | 41804
Pomp | 1 | 39287 (active) | 52276 | – | 3037 | 3436
CG7423 | 1 | 71578 | 1.84e5 | – | 1202 | 7651
fal | 1 | 1.07e5 | 74707 | – | 4480 | 2999
CG4480 | 1 | 90425 | 61568 | – | 2458 | 5073
Ugt304A1 | 1 | 79048 | 88400 | – | 2101 | 2464
Hex-A | 1 | 48833 | 95152 | – | 1862 | 4854
CG13403 | 1 | 78192 | 3.05e5 | – | 1891 | 12676
Ir48a | 1 | 1.62e5 | 2.40e5 | – | 3961 | 9004
Reg-2 | 1 | 1.30e5 | 69238 | – | 5257 | 3136
chb | 1 | 2.62e5 | – | – | 5815 | –
Shmt | 1 | 61981 | 1.62e5 | – | 1481 | 6539
